PubChem BioAssay AID504793 | Drosophila RNAi Screening Center – 2011
In all, the deposit lists about 23,000 reagents; shown is a random part of those that have a named target and a result. Of all reagents, 62 (0.27%) are marked active. 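Calls come from follow-up tests whose scores are not deposited, so confirmed genes may have low counts here; counts are not normalised per plate.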 Raw values are not corrected between plates. Unmarked entries are inactive. No sequences are given here.

Assay: 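Whole-genome screen for parts of the DNA damage checkpoint at G2/M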 (primary screen)
Cells: Drosophila S2R+ cells
Reagents: long dsRNA against Drosophila genes, about 0.25 µg dsRNA per well
Time to read-out: 4 days of dsRNA, then 4 hours of drug before read-out
Treatment: doxorubicin 0.5 µM for 4 hours to cause double-strand breaks, in cells also given a low, harmless dose of dsRNA against nbs to sensitise the assay
Read-out: 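Mitotic index as the number of phospho-histone H3-positive cells in each well following doxorubicin, given as raw counts without normalisation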
Scale: mitotic cells: higher = more cells in mitosis, weaker G2 arrest
Call rule: 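Genes are called active only when high mitotic counts were reproduced with independent dsRNAs and mitosis was checked for delay without damage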
Calls: active = confirmed in follow-up tests; inactive = not confirmed

alpha-Man-IIa [DRSC15393] gave mitotic cells, replicate 1 = 3.
dpr18 [DRSC19606] showed mitotic cells, replicate 1 = 9.
CG43367 [DRSC08299] scored mitotic cells, replicate 1 = 1.
For CG43367 [DRSC08301], the entry reads mitotic cells, replicate 1 = 6.
CG43367 [DRSC08309] gave mitotic cells, replicate 1 = 6.
Depletion of CG43367 [DRSC24732] gave: mitotic cells, replicate 1 = 4.
Knock-down of Gle1 [DRSC06485] resulted in: mitotic cells, replicate 1 = 6.
Silencing of Gle1 [DRSC29960] gave: mitotic cells, replicate 1 = 7.
CG15439 [DRSC00453] scored mitotic cells, replicate 1 = 7.
For CG15439 [DRSC29801], the entry reads mitotic cells, replicate 1 = 6.
Knock-down of CG14294 [DRSC14774] resulted in: mitotic cells, replicate 1 = 5.
Against CG15098 [DRSC06527], the values are mitotic cells, replicate 1 = 10.
CG15098 [DRSC29966] gave mitotic cells, replicate 1 = 7.
Knock-down of CG7381 [DRSC16238] gave: mitotic cells, replicate 1 = 9.
After knock-down of CG7381 [DRSC29012], the record shows mitotic cells, replicate 1 = 3.
For Ncoa6 [DRSC23060] the deposit lists mitotic cells, replicate 1 = 5.
Depletion of Ncoa6 [DRSC25819] came out at: mitotic cells, replicate 1 = 10.
After knock-down of Tnks [DRSC14154] the results were mitotic cells, replicate 1 = 19.
With knock-down of Art1 [DRSC16063], the record shows mitotic cells, replicate 1 = 4.
Against CG5003 [DRSC15694], the entry reads mitotic cells, replicate 1 = 6.
CG5003 [DRSC26689] showed mitotic cells, replicate 1 = 4.
CG10834 [DRSC03693] showed mitotic cells, replicate 1 = 7.

Part of the list above, set out differently.
gene	dsRNA	mitotic cells, replicate 1
CG43367	DRSC08301	6
CG43367	DRSC08309	6
CG43367	DRSC24732	4
Gle1	DRSC06485	6

Additional records:
Silencing of ND-20 [DRSC20164] gave: mitotic cells, replicate 1 = 8.
CG8128 [DRSC20084] gave mitotic cells, replicate 1 = 5.
For Sirt1 [DRSC03435] the deposit lists mitotic cells, replicate 1 = 3.
With knock-down of AstA-R2 [DRSC14171], the record shows mitotic cells, replicate 1 = 5.
Silencing of AstA-R2 [DRSC24820] gave: mitotic cells, replicate 1 = 6.
Against CG32099 [DRSC21352], the entry reads mitotic cells, replicate 1 = 18.
Knock-down of Dera [DRSC07207] resulted in: mitotic cells, replicate 1 = 6.
After knock-down of Dera [DRSC21336] the results were mitotic cells, replicate 1 = 8.
After knock-down of Dera [DRSC26996], the record shows mitotic cells, replicate 1 = 5.
After knock-down of CG10793 [DRSC17760] the results were mitotic cells, replicate 1 = 13.
For CG34443 [DRSC29357], the entry reads mitotic cells, replicate 1 = 5.
After knock-down of CG17855 [DRSC02638] the results were mitotic cells, replicate 1 = 5.
